{
  "source": "PubChem BioAssay AID1347076",
  "about": "(National Center for Advancing Translational Sciences (NCATS), 2019)",
  "note": "Hit rate of the full screen: of about 400,000 compounds, about 13,000 (3.2%) were called active. Inconclusive means that the source gave no clear call. Such entries were picked first, then a sample of the others. Calls come from the whole dose curve; as a rule, active = well fitted cell-killing curve with a large enough effect; inconclusive = small, poorly fitted or top-dose-only effect, or effect the other way; inactive = flat fitted curve, though single readings scatter. A potency beside an inconclusive call is a rough fit, not a confirmed value. % is set by controls: 0 for no effect and ±100 for the full control effect; potency is the fitted concentration of half-maximal effect.",
  "data": [
    {"assay": "qHTS assay for MDR1-selective chemotherapeutics: Primary screen using the drug-selected MDR subline cells KB-V1; note: nearly all actives have a fitted effect of over 60% in size", "details": "KB-V1 MDR cells viability, CellTiter-Glo, 72 h; activity change, negative = cytotoxicity: at 46.1 µM (top of the series)", "method_in_brief": "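In this primary screen, KB-V1 cells overexpressing P-gp are incubated with library compounds (lowest to highest concentration) for 72 h at 37 degrees C before a luminescent ATP viability read.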", "values": [
      {"compound": "Cn1c(=O)[nH]c(=O)c2c1nc(N1CCc3ccccc3C1)n2CCSc1nc2ccccc2s1", "Potency": "inconclusive: 1.46 µM [cytotoxic, full curve, poor fit]"},
      {"compound": "C[C@]12C=CC(=O)C=C1CC[C@@H]1C2=CC[C@]2(C)[C@@H](C(=O)CN3CCN(c4cc(N5CCCC5)nc(N5CCCC5)n4)CC3)CC[C@@H]12", "activity change, negative = cytotoxicity": "inactive: -5.49%"},
      {"compound": "CCCCNc1c(-c2ccc(OC)c(Sc3ccc(OC)cc3)c2)nc2ccccn12", "Potency": "inconclusive: 14.6 µM [cytotoxic, partial curve, poor fit]"},
      {"compound": "COc1cc(/C=C(\\C#N)c2nc3ccccc3[nH]2)cc(Br)c1OCc1ccc(F)cc1", "activity change, negative = cytotoxicity": "inactive: 0.18%"},
      {"compound": "COc1cc2c(cc1OC)CN(C(=O)CCNS(=O)(=O)c1ccc(Br)cc1)CC2", "Potency": "inconclusive: 8.2 µM [cytotoxic, partial curve, poor fit]"},
      {"compound": "Cc1cc(C(=O)CN2C(=O)C(=O)N(Cc3ccccc3)C2=O)c(C)n1Cc1ccccc1", "Potency": "active: 20.6 µM"},
      {"compound": "C[C@H](CO)N1C[C@H](C)[C@@H](CN(C)Cc2cccnc2)Oc2cc(-c3cccnc3)ccc2S1(=O)=O", "activity change, negative = cytotoxicity": "inactive: 11.8%"},
      {"compound": "Cc1cc(OCc2cc(C(=O)N(C)Cc3nonc3C)no2)cc(C)c1Cl", "Potency": "inconclusive: 29.1 µM [cytotoxic, single point]"},
      {"compound": "CC(C)(C)n1nnnc1C(c1ccccc1)N1CCN(c2ccccc2)CC1", "note": "(stereo not given)", "Potency": "inconclusive: 6.51 µM [cytotoxic, partial curve]"},
      {"compound": "CCOc1cc(/C=C2\\SC(=S)N(N3CCOCC3)C2=O)ccc1O", "activity change, negative = cytotoxicity": "inactive: 23.9%"},
      {"compound": "CCC(C(=O)Nc1nccs1)c1ccccc1", "note": "(stereo not given)", "activity change, negative = cytotoxicity": "inactive: -3.07%"},
      {"compound": "C[n+]1ccc(/C=C/c2ccc(F)cc2)c2ccccc21", "activity change, negative = cytotoxicity": "inactive: 17.9%"},
      {"compound": "Cc1cc(=O)[nH]c2c(C)cc(S(=O)(=O)N3CCOCC3)cc12", "Potency": "inconclusive: 32.6 µM [cytotoxic, single point]"},
      {"compound": "Cc1oc(-c2ccc(Cl)cc2)nc1CN1CCCC(C(=O)NCCc2ccccc2)C1", "note": "(stereo not given)", "Potency": "inconclusive: 10.3 µM [cytotoxic, partial curve]"},
      {"compound": "C=C(C)CSCc1nc2ccccc2[nH]1", "Potency": "inconclusive: 18.4 µM [cytotoxic, partial curve]"},
      {"compound": "CC(C)(C)OC(=O)C(Oc1ccccc1[N+](=O)[O-])C(=O)OC(C)(C)C", "activity change, negative = cytotoxicity": "inactive: -1.9%"},
      {"compound": "CCCc1nnc(NC(=O)CC(=O)Nc2ccccc2C(=O)O)s1", "Potency": "inconclusive: 2.59 µM [rising, single point]"},
      {"compound": "NS(=O)(=O)c1ccc(CCn2c(=S)[nH]c3ccc(F)cc3c2=O)cc1", "activity change, negative = cytotoxicity": "inactive: -7.52%"},
      {"compound": "Cc1ccc(S(=O)(=O)N2CCCc3cc(NS(=O)(=O)c4ccc(C)c(C)c4)ccc32)cc1", "Potency": "inconclusive: 13 µM [cytotoxic, single point]"},
      {"compound": "COc1nc(OC)nc(N2CCC(C(=O)NCc3cccs3)CC2)n1", "Potency": "active: 18.4 µM"},
      {"compound": "COc1ccc(C(=O)NC(=S)Nc2cccc3cc(O)ccc23)cc1OC", "Potency": "inconclusive: 23.1 µM [cytotoxic, single point]"},
      {"compound": "Cc1cccc(NC(=O)c2ccc(OCc3c(C)noc3C)cc2)c1C", "Potency": "inconclusive: 23.1 µM [cytotoxic, single point]"},
      {"compound": "O=C(Nc1nnc(Cc2ccccc2)s1)c1ccco1", "activity change, negative = cytotoxicity": "inactive: -6.57%"},
      {"compound": "COc1ccccc1NC(=O)N(Cc1cc2cc(OC)c(OC)cc2[nH]c1=O)CC1CCCO1", "note": "(stereo not given)", "activity change, negative = cytotoxicity": "inactive: -23.6%"},
      {"compound": "COc1ccc(Cc2nc3ccc(C(=O)NCCc4ccc(OC)c(OC)c4)cc3o2)cc1", "Potency": "inconclusive: 0.461 µM [cytotoxic, full curve, poor fit]"},
      {"compound": "Nc1ccc(C(=O)Nc2ccccc2N)cc1", "Potency": "inconclusive: 25.9 µM [cytotoxic, single point]"},
      {"compound": "CCCCCC(=O)NC(=S)Nc1cccc(-c2nc3ncccc3o2)c1", "activity change, negative = cytotoxicity": "inactive: 8.04%"},
      {"compound": "CN(Cc1ccccc1)c1nc2c(c(=O)[nH]c(=O)n2C)n1Cc1ccccc1", "Potency": "active: 9.2 µM"},
      {"compound": "CC(C)(C)n1cnc2cc(NS(=O)(=O)c3ccccc3)ccc21", "Potency": "inconclusive: 16.4 µM [cytotoxic, single point]"},
      {"compound": "CN(C)C(=O)CSc1nnc([C@H](Cc2c[nH]c3ccccc23)NC(=O)OC(C)(C)C)o1", "Potency": "active: 13 µM"},
      {"compound": "CCCCC1CC2=C(C(=O)OC(C)(C)O2)C(c2ccc3ccccc3c2)O1", "note": "(stereo not given)", "activity change, negative = cytotoxicity": "inactive: -11.7%"},
      {"compound": "Nc1nc2n(n1)C(=O)CC(c1ccccc1[N+](=O)[O-])N2", "note": "(stereo not given)", "Potency": "inconclusive: 3.66 µM [rising, partial curve, poor fit]"},
      {"compound": "CCc1ccc(C(O)c2ncc(-c3cccc(C(F)(F)F)c3)[nH]2)cc1", "note": "(stereo not given)", "Potency": "inconclusive: 29.1 µM [cytotoxic, single point]"},
      {"compound": "Cc1ccc2nc(-c3ccncc3)c(NC3CCCC3)n2c1", "activity change, negative = cytotoxicity": "inactive: 0%"},
      {"compound": "COc1ccc(-c2ccc(C(=O)Nc3cccc(F)c3)c3occc23)c(C)c1", "activity change, negative = cytotoxicity": "inactive: -18.7%"},
      {"compound": "CCc1cc(C(=O)OC)c(NC(=O)CSc2nccn2C)s1", "Potency": "inconclusive: 10.3 µM [cytotoxic, partial curve]"},
      {"compound": "CC(=O)c1cnc(-c2cccc(Cl)c2)s1", "Potency": "inconclusive: 29.1 µM [rising, single point]"},
      {"compound": "O=C(/C=C/c1ccccc1)Nc1ccc2c(c1)C(=O)NC2=O", "Potency": "inconclusive: 0.013 µM [rising, full curve, poor fit]"},
      {"compound": "COC(=O)[C@]12CCCCC=C1N(Cc1cccc3ccccc13)C(=O)[C@H](CC(=O)NCC1CCCCC1)C2", "Potency": "inconclusive: 29.1 µM [cytotoxic, single point]"},
      {"compound": "C=CCn1c(-c2ccc(Cl)cc2)ccc(C#N)c1=O", "Potency": "inconclusive: 29.1 µM [cytotoxic, single point]"},
      {"compound": "CCOc1ccc(C(=O)Nc2ccc(-c3nnc4n3CCCCC4)cc2)cc1OCC", "Potency": "inconclusive: 14.6 µM [rising, partial curve, poor fit]"},
      {"compound": "CCOC(=O)c1c(C)n(C)c2ccc(OC(C)C(=O)OC)cc12", "note": "(stereo not given)", "activity change, negative = cytotoxicity": "inactive: -6.44%"},
      {"compound": "O=S(=O)(NCC1CCCO1)c1ccc(Oc2ccccc2)cc1", "note": "(stereo not given)", "Potency": "inconclusive: 16.4 µM [cytotoxic, partial curve, poor fit]"},
      {"compound": "O=C(N/N=C/c1ccc2c(c1)OCO2)c1ccc(Cn2cc([N+](=O)[O-])cn2)o1", "Potency": "inconclusive: 18.4 µM [cytotoxic, single point]"},
      {"compound": "Cc1cccc(NC(=O)Nc2cccc(Oc3c(F)c(F)c(F)c(F)c3F)c2)c1", "Potency": "inconclusive: 29.1 µM [cytotoxic, single point]"}
    ]}
  ]
}
